# In PubChem BioAssay AID540256 (National Center for Advancing Translational Sciences (NCATS), 2011):
# About 3,700 (1.2%) of roughly 300,000 compounds were called active. Inconclusive means that the source gave no clear call. Such entries were picked first, then a sample of the others. Calls follow the shape of the full dose curve; tested in HEK293 cells. Potencies of inconclusive entries are doubtful fits and often do not repeat.
# Assay: qHTS for Inhibitors of binding or entry into cells for Lassa Virus; also: nearly all actives have a fitted effect of over 50% in size
# Details: Lassa virus pseudotype entry inhibition, cell reporter; activity change, negative = inhibition: at 37.9 µM (top of the series) unless noted
# % is scaled to controls: 0 for no effect and ±100 for the full control effect; potency is read from the fitted curve at half-maximal effect.
Structure (SMILES),Potency,"activity change, negative = inhibition"
CCSc1nc(N)c(NC(=O)c2ccc(Br)o2)c(=O)[nH]1,"inconclusive: 31.6 µM [activator, single point]",–
c1ccc2sc(N3CN(CCN4CCOCC4)CN(c4nc5ccccc5s4)C3)nc2c1,"inconclusive: 29.1 µM [inhibitor, single point]",–
CC(C)(CNC(=O)c1ccc(-c2cccc(C(F)(F)F)c2)o1)N1CCOCC1,–,inactive: 2%
CC(=O)c1ccc(C(=O)N(Cc2cccnc2)c2nc3c(Cl)cccc3s2)cc1,"inconclusive: 11.2 µM [inhibitor, partial curve, poor fit]",–
O=C(COC(=O)c1ccc2ncsc2c1)Nc1cc(Cl)ccc1F,–,inactive: 8.33%
COc1cc2c(cc1OC)C(COc1ccc(F)cc1)N(C(=O)c1ccccc1F)CC2 (centres undefined),"inconclusive: 35.5 µM [inhibitor, single point]",–
CSc1cccc(NC(=O)Cn2nc(C)c3sc4ccccc4c3c2=O)c1,"inconclusive: 3.16 µM [inhibitor, single point]",–
Fc1ccc(COc2ccc(C(=S)N3CCCC3)cc2)cc1,"inconclusive: 35.5 µM [inhibitor, single point]",–
COc1ccc(-n2c(C)nc3cc(C(=O)NC4CCCC4)ccc32)cc1,–,inactive: -11.8% [at 46.1 µM]
CCN1CCc2c(sc(NC(=O)c3cc4ccccc4cc3OC)c2C(N)=O)C1,–,inactive: -1.81% [at 46.1 µM]
COc1ccc(N2C(=O)C3C4c5ccccc5C(C=Nc5ccc(C)cc5C)(c5ccccc54)C3C2=O)cc1 (centres undefined),"inconclusive: 23.1 µM [inhibitor, partial curve, poor fit]",–
CCN(CC)c1ccc(CNc2ccc(Br)cn2)cc1,"inconclusive: 35.5 µM [inhibitor, single point]",–
CCN1/C(=C2\C(=O)N(c3ccccc3)N=C2C)C=Cc2cc(C)ccc21,–,inactive: 20.6%
CCOc1ccc(-c2nnc3sc(COc4ccccc4)nn23)cc1,"inconclusive: 25.9 µM [inhibitor, partial curve, poor fit]",–
CCOCCCNC(=O)Nc1cc(C(=O)NCc2ccc(C(C)C)cc2)ccc1N1CCCC1,"inconclusive: 2.24 µM [inhibitor, partial curve, poor fit]",–
CC1=C(SCCC#N)S/C(=C2\SC(C)=C(SCCC#N)S2)S1,"inconclusive: 14.6 µM [inhibitor, single point]",–
CC(C)OCCCN(C)C1CCN(S(=O)(=O)c2csc(C(N)=O)c2)CC1,–,inactive: 0.0743% [at 46.1 µM]
O=C(CCS(=O)(=O)c1ccccc1)Nc1cccc(-c2nc3ccccc3s2)c1,"inconclusive: 29.1 µM [inhibitor, single point]",–
Cc1nc(N)sc1-c1csc(Nc2ccccn2)n1,"inconclusive: 15.8 µM [inhibitor, single point]",–
CCC(=O)N/C(N)=N/c1nc(C)c2cc(OC)ccc2n1,–,inactive: 17.8%
COc1cccc(-c2cc(C(=O)N3CCN(C(c4ccccc4)c4ccccc4)CC3)no2)c1,–,inactive: -21.5%
O=C(N/N=C/c1ccccc1O)C(=O)N1CCCCCC1,"inconclusive: 10 µM [inhibitor, partial curve, poor fit]",–
COc1ccc(-c2nc(N3CCCCCC3)sc2C(=O)c2ccccc2)cc1,"inconclusive: 35.5 µM [inhibitor, single point]",–

Structure (SMILES),Potency,"activity change, negative = inhibition"
CCCCOc1ccc(C(=O)Nc2ccncc2)cc1,"inconclusive: 4.47 µM [inhibitor, full curve]",–
Cc1ccc(CNS(=O)(=O)c2ccc(C(C)(C)C)cc2)n1C,"inconclusive: 6.51 µM [activator, single point]",–
Cc1ccc(OCC(=O)O/N=C(\N)c2ccncc2)c(C)c1,"inconclusive: 35.5 µM [inhibitor, single point]",–
COc1cccc(NC(=O)COC(=O)c2ccccc2C(=O)N2CCN(c3ccccc3)CC2)c1,"inconclusive: 14.1 µM [inhibitor, partial curve, poor fit]",–
CCOc1ccc(N(CC)S(=O)(=O)N2CCCC(C(=O)NCc3ccc(Cl)cc3)C2)cc1 (centres undefined),"inconclusive: 14.1 µM [inhibitor, partial curve, poor fit]",–
COc1cc(C2C(C#N)=C(N)Oc3cc(O)ccc32)cc2c1OCO2 (centres undefined),–,inactive: -22.1%
CN1CCN(CCCNC(=O)c2ccc(CSCc3cccc(Cl)c3)o2)CC1,active: 11.2 µM,–
COc1ccc(N(C)C(=O)C2CCN(S(=O)(=O)c3cccc4nsnc34)CC2)cc1,"inconclusive: 10 µM [inhibitor, partial curve, poor fit]",–
CCc1ccc(/C=N/NC(=O)c2cc(-c3ccncc3)nc3ccccc23)s1,"inconclusive: 6.31 µM [inhibitor, full curve]",–
CC(C)c1cc(C(=O)Nc2cccnc2)no1,"inconclusive: 1.46 µM [activator, partial curve]",–
COc1ccc(C)cc1NC(=O)c1cnc2n(c1=O)CCS2,"inconclusive: 2.31 µM [activator, partial curve, poor fit]",–
CN1CCN(c2c(F)cc([N+](=O)[O-])c(N)c2Br)CC1,"inconclusive: 0.447 µM [inhibitor, partial curve, poor fit]",–
COCc1cc(C)nc(OCC(=O)N/N=C/c2ccc(O)cc2)c1C#N,"inconclusive: 6.31 µM [activator, single point]",–
NNC(=O)/C(=C/c1cccs1)NC(=O)c1ccccc1Cl,"inconclusive: 11.2 µM [inhibitor, partial curve, poor fit]",–
COc1ccc(OC)c(CCNc2nccn(-c3ccc(C)c(C)c3)c2=O)c1,–,inactive: -4.92% [at 46.1 µM]
Cc1cc(-n2cnc(-c3cn(C)nc3C)n2)no1,"inconclusive: 1.41 µM [activator, partial curve, poor fit]",–
O=C(N/N=C/C=C/c1ccccc1)c1ccncc1,"inconclusive: 0.398 µM [inhibitor, full curve, poor fit]",–
COC(=O)c1cc(NS(=O)(=O)c2ccc(C)c3ccccc23)ccc1N1CCOCC1,"inconclusive: 7.94 µM [inhibitor, partial curve, poor fit]",–
CC1CCc2cc(F)cc3c(O)c(C(=O)NCC4CCCO4)c(=O)n1c23 (centres undefined),–,inactive: 13.1%
O=C(C1=NN[C@@H]2C(=O)N(c3cccc(C(F)(F)F)c3)C(=O)[C@H]12)c1cnccn1,–,inactive: 16.2%
CCCn1ccc2c(OCC(=O)Nc3ccccc3OCC)cccc2c1=O,"inconclusive: 14.1 µM [inhibitor, single point]",–
CCOc1ccc(-c2cc(C(=O)OC)nc3c2c(=O)n(C)c(=O)n3C)cc1,–,inactive: -0.887% [at 46.1 µM]
COc1ccccc1/C=C/C(=O)OC(C)CN1CCCCC1 (centres undefined),"inconclusive: 3.16 µM [inhibitor, partial curve]",–

# Reformatted with tabs: 20 of the compounds above.
Structure (SMILES)	Potency	activity change, negative = inhibition
CCCCOc1ccc(C(=O)Nc2ccncc2)cc1	inconclusive: 4.47 µM [inhibitor, full curve]	–
Cc1ccc(OCC(=O)O/N=C(\N)c2ccncc2)c(C)c1	inconclusive: 35.5 µM [inhibitor, single point]	–
COc1cccc(NC(=O)COC(=O)c2ccccc2C(=O)N2CCN(c3ccccc3)CC2)c1	inconclusive: 14.1 µM [inhibitor, partial curve, poor fit]	–
CCOc1ccc(N(CC)S(=O)(=O)N2CCCC(C(=O)NCc3ccc(Cl)cc3)C2)cc1 (centres undefined)	inconclusive: 14.1 µM [inhibitor, partial curve, poor fit]	–
COc1cc(C2C(C#N)=C(N)Oc3cc(O)ccc32)cc2c1OCO2 (centres undefined)	–	inactive: -22.1%
CN1CCN(CCCNC(=O)c2ccc(CSCc3cccc(Cl)c3)o2)CC1	active: 11.2 µM	–
COc1ccc(N(C)C(=O)C2CCN(S(=O)(=O)c3cccc4nsnc34)CC2)cc1	inconclusive: 10 µM [inhibitor, partial curve, poor fit]	–
CC(C)c1cc(C(=O)Nc2cccnc2)no1	inconclusive: 1.46 µM [activator, partial curve]	–
COc1ccc(C)cc1NC(=O)c1cnc2n(c1=O)CCS2	inconclusive: 2.31 µM [activator, partial curve, poor fit]	–
CN1CCN(c2c(F)cc([N+](=O)[O-])c(N)c2Br)CC1	inconclusive: 0.447 µM [inhibitor, partial curve, poor fit]	–
COCc1cc(C)nc(OCC(=O)N/N=C/c2ccc(O)cc2)c1C#N	inconclusive: 6.31 µM [activator, single point]	–
NNC(=O)/C(=C/c1cccs1)NC(=O)c1ccccc1Cl	inconclusive: 11.2 µM [inhibitor, partial curve, poor fit]	–
COc1ccc(OC)c(CCNc2nccn(-c3ccc(C)c(C)c3)c2=O)c1	–	inactive: -4.92% [at 46.1 µM]
Cc1cc(-n2cnc(-c3cn(C)nc3C)n2)no1	inconclusive: 1.41 µM [activator, partial curve, poor fit]	–
O=C(N/N=C/C=C/c1ccccc1)c1ccncc1	inconclusive: 0.398 µM [inhibitor, full curve, poor fit]	–
COC(=O)c1cc(NS(=O)(=O)c2ccc(C)c3ccccc23)ccc1N1CCOCC1	inconclusive: 7.94 µM [inhibitor, partial curve, poor fit]	–
CC1CCc2cc(F)cc3c(O)c(C(=O)NCC4CCCO4)c(=O)n1c23 (centres undefined)	–	inactive: 13.1%
O=C(C1=NN[C@@H]2C(=O)N(c3cccc(C(F)(F)F)c3)C(=O)[C@H]12)c1cnccn1	–	inactive: 16.2%
CCCn1ccc2c(OCC(=O)Nc3ccccc3OCC)cccc2c1=O	inconclusive: 14.1 µM [inhibitor, single point]	–
COc1ccccc1/C=C/C(=O)OC(C)CN1CCCCC1 (centres undefined)	inconclusive: 3.16 µM [inhibitor, partial curve]	–

# (list continues)

Structure (SMILES),Potency,"activity change, negative = inhibition"
CCc1ccccc1Nc1cc(C(=O)NCCc2ccccc2)c2ccccc2n1,–,inactive: -22.9% [at 46.1 µM]
O=C(Nc1ccc(Cl)c(C(F)(F)F)c1)C1CCCN(S(=O)(=O)c2cccc3cccnc23)C1 (centres undefined),active: 5.62 µM,–
CC1CCN(S(=O)(=O)c2ccc3c(c2)c(=O)c(C(=O)NCc2ccc(Cl)cc2)cn3C)CC1,–,inactive: 6.09% [at 46.1 µM]
Oc1oc(-c2ccco2)nc1C=Nc1cccc(Cl)c1,–,inactive: 3.7%
CCOC(=O)c1cnn(CC2CCCCC2)c1N,"inconclusive: 35.5 µM [activator, single point]",–
COc1ccccc1NC(=O)Cn1cnc2c(nc3n2CCCCC3)c1=O,"inconclusive: 1 µM [inhibitor, full curve, poor fit]",–
CC1=NCCN1CCNC(=O)Nc1ccc(C(C)(C)C)cc1,–,inactive: 8.28% [at 46.1 µM]
Cc1ccc2c(c1)C1(OCCCO1)C(=O)N2,"inconclusive: 2.82 µM [activator, single point]",–
CCC1CCC(C(=O)NC(C(=O)NCCN(CC(C)C)CC(C)C)C(C)C)CC1 (centres undefined),–,inactive: -7.35% [at 46.1 µM]
O=C(CSc1cccc(C(F)(F)F)c1)NCc1ccccc1,"inconclusive: 35.5 µM [inhibitor, single point]",–
COc1cc(-c2noc(CSc3nc(-c4ccc(F)cc4)cc(=O)[nH]3)n2)cc(OC)c1OC,–,inactive: 1.3% [at 46.1 µM]
Cc1ccccc1CN1N=C(/C=C/c2ccccc2)CCC1=O,active: 7.94 µM,–
CCc1nc(SCC(=O)Nc2ccc(N(CC)CC)cc2)n[nH]1,–,inactive: -2.47%
Cc1ccnc2nc(C(=O)Nc3ccc4c(c3)OCO4)nn12,"inconclusive: 25.9 µM [inhibitor, single point]",–
Cc1c(C)n(Cc2ccccc2)c2ccc(C(=O)NCCCN3CCOCC3)cc12,"inconclusive: 0.562 µM [inhibitor, full curve, poor fit]",–
Cc1onc(-c2ccccc2Cl)c1C(=O)OCC(=O)Nc1cccc(S(=O)(=O)N2CCOCC2)c1,"inconclusive: 7.94 µM [inhibitor, partial curve]",–
COC(=O)c1ccc(OCCn2cnc3ccccc3c2=O)cc1,"inconclusive: 0.326 µM [activator, full curve, poor fit]",–
O=C(Nc1ccc(Cl)cc1)c1csc(-c2ccncc2)n1,"inconclusive: 35.5 µM [inhibitor, single point]",–
CCOc1ccc(Nc2nc(Cc3nnc(SCC(=O)O)o3)cs2)cc1,–,inactive: -4.7%
CCC(C(=O)NCCN1CCN(C)CC1)n1c(C)c2cnn(-c3ccccc3)c(=O)c2c1C (centres undefined),"inconclusive: 28.2 µM [activator, single point]",–
C/C(=N/NC(=O)Cc1c(C)[nH][nH]c1=O)c1ccc(O)cc1,"inconclusive: 35.5 µM [activator, partial curve, poor fit]",–
COc1ccc(C(=O)NNC(=O)C(=O)Nc2ccc(C)c(Cl)c2)cc1,"inconclusive: 1.83 µM [inhibitor, partial curve, poor fit]",–
O=C(O)c1ccccc1Nc1ccccc1,–,inactive: 8.43%
